Consider one molecule from patent US20250144186A1, “NOVEL THERAPEUTIC USES OF GARDNERELLA ENDOLYSINS” (priority 2022, published 2025).

A value given as a limit tells only on which side of the number the result lay.

In experiment [1] the test system is G. vaginalis biofilm. The experiment is described as follows: MBEC on pre-formed biofilms of ancestor isolates. It counts as cell-based, Gardnerella vaginalis. As to the method: (§1) Gardnerella spp. (see figures for strain specification) was resuspended in brain heart infusion broth supplemented with 2% (w/v) gelatin, 0.5% yeast extract (w/v), 0.1% starch (w/v) and 0.25% glucose (w/v) (sBHIG). Passaged strains were resuspended in unbuffered NYCB supplemented with 1% glucose (w/v) (sNYCB). The OD600 was set to 0.1 (approx. 10^7-10^8 CFU/mL) and the cell suspension was diluted 1:10 in growth medium as input for biofilm formation. A total of 200 μL of the respective bacterial suspensions was added to 96-well flat bottom plates (tissue-culture treated, Sigma-Aldrich). The biofilms were grown under anaerobic conditions at 37° C. for 40 to 72 hours, depending on the isolate. Subsequently, the supernatant was removed, and the biofilm was treated with antimicrobials dissolved in sBHIG (at pH 5 for treatment with PM-477 (H2B10), and unbuffered for treatment with antibiotics) in 100 μL and incubated anaerobically at 37° C. for another 24 hours. After the treatment, the biofilms were washed twice with 200 μL 1x PBS and dissolved by vigorous pipetting (40x up and down). Serial dilutions of the dissolved cells were spotted on chocolate agar plates. The plates were incubated anaerobically for two to three days and the minimum biofilm eradication concentration (MBEC) of the endolysin or the antibiotics in use were calculated.
Gardnerella dominated biofilms covering the human vaginal epithelial cells are now generally considered as a hallmark of BV. Thus, it was tested how effective antibiotics and PM-477 (H2B10) are in penetrating and killing in vitro pre-formed, 40-72 h old biofilms of various Gardnerella strains.

In experiment [2] the test system is Gardnerella strains grown as biofilm. In words: MBEC on pre-formed biofilms, summary over ancestor strains. Format: cell-based, Gardnerella spp. As to the method:
as §1, with “calculated. […]” for “calculated.”

`CCC[C@@H]1C[C@@H](C(=O)N[C@@H]([C@H]2O[C@H](SC)[C@H](O)[C@@H](O)[C@H]2O)[C@H](C)Cl)N(C)C1` [CLI, clindamycin]: the MBEC was over 512 µg/mL in experiment [1] (ancestor G. vaginalis ATCC14018, pre-formed biofilm, 24 h treatment); over 512 µg/mL in experiment [1] (ancestor G. vaginalis UGent 09.07, pre-formed biofilm); over 512 µg/mL in experiment [1] (ancestor G. vaginalis UGent BV50, pre-formed biofilm); over 512 µg/mL in experiment [1] (ancestor G. vaginalis UGent BV111.5, pre-formed biofilm); over 512 µg/mL in experiment [1] (ancestor G. vaginalis UGent FB049, pre-formed biofilm); over 512 µg/mL in experiment [2] (7 out of 9 tested Gardnerella strains, biofilm). The “MBEC, range over strains” value in experiment [2] (ancestor Gardnerella strains, 40-72 h old pre-formed biofilms) was at least 512 µg/mL.
